This test has as its target ryanodine receptor 2 (rat (endogenous in neonatal rat cardiomyocytes)) (UniProt B0LPN4). The experiment in a line: co-IP; RyR2 immunoprecipitated from lysates of adenovirally transduced neonatal rat cardiomyocytes; lysis buffer 1% Nonidet-P40, 10% glycerol, 135 mM NaCl, 1 mM CaCl2, 20 mM Tris-HCl pH 7.4 (high Ca2+), 4°C; S100A1 detected by immunoblot. A general note: Immunoblotting shows a protein as a band on a membrane.

Sequences of proteins named here, by UniProt entry; tags and fusion partners are left off.
UniProt B0LPN4: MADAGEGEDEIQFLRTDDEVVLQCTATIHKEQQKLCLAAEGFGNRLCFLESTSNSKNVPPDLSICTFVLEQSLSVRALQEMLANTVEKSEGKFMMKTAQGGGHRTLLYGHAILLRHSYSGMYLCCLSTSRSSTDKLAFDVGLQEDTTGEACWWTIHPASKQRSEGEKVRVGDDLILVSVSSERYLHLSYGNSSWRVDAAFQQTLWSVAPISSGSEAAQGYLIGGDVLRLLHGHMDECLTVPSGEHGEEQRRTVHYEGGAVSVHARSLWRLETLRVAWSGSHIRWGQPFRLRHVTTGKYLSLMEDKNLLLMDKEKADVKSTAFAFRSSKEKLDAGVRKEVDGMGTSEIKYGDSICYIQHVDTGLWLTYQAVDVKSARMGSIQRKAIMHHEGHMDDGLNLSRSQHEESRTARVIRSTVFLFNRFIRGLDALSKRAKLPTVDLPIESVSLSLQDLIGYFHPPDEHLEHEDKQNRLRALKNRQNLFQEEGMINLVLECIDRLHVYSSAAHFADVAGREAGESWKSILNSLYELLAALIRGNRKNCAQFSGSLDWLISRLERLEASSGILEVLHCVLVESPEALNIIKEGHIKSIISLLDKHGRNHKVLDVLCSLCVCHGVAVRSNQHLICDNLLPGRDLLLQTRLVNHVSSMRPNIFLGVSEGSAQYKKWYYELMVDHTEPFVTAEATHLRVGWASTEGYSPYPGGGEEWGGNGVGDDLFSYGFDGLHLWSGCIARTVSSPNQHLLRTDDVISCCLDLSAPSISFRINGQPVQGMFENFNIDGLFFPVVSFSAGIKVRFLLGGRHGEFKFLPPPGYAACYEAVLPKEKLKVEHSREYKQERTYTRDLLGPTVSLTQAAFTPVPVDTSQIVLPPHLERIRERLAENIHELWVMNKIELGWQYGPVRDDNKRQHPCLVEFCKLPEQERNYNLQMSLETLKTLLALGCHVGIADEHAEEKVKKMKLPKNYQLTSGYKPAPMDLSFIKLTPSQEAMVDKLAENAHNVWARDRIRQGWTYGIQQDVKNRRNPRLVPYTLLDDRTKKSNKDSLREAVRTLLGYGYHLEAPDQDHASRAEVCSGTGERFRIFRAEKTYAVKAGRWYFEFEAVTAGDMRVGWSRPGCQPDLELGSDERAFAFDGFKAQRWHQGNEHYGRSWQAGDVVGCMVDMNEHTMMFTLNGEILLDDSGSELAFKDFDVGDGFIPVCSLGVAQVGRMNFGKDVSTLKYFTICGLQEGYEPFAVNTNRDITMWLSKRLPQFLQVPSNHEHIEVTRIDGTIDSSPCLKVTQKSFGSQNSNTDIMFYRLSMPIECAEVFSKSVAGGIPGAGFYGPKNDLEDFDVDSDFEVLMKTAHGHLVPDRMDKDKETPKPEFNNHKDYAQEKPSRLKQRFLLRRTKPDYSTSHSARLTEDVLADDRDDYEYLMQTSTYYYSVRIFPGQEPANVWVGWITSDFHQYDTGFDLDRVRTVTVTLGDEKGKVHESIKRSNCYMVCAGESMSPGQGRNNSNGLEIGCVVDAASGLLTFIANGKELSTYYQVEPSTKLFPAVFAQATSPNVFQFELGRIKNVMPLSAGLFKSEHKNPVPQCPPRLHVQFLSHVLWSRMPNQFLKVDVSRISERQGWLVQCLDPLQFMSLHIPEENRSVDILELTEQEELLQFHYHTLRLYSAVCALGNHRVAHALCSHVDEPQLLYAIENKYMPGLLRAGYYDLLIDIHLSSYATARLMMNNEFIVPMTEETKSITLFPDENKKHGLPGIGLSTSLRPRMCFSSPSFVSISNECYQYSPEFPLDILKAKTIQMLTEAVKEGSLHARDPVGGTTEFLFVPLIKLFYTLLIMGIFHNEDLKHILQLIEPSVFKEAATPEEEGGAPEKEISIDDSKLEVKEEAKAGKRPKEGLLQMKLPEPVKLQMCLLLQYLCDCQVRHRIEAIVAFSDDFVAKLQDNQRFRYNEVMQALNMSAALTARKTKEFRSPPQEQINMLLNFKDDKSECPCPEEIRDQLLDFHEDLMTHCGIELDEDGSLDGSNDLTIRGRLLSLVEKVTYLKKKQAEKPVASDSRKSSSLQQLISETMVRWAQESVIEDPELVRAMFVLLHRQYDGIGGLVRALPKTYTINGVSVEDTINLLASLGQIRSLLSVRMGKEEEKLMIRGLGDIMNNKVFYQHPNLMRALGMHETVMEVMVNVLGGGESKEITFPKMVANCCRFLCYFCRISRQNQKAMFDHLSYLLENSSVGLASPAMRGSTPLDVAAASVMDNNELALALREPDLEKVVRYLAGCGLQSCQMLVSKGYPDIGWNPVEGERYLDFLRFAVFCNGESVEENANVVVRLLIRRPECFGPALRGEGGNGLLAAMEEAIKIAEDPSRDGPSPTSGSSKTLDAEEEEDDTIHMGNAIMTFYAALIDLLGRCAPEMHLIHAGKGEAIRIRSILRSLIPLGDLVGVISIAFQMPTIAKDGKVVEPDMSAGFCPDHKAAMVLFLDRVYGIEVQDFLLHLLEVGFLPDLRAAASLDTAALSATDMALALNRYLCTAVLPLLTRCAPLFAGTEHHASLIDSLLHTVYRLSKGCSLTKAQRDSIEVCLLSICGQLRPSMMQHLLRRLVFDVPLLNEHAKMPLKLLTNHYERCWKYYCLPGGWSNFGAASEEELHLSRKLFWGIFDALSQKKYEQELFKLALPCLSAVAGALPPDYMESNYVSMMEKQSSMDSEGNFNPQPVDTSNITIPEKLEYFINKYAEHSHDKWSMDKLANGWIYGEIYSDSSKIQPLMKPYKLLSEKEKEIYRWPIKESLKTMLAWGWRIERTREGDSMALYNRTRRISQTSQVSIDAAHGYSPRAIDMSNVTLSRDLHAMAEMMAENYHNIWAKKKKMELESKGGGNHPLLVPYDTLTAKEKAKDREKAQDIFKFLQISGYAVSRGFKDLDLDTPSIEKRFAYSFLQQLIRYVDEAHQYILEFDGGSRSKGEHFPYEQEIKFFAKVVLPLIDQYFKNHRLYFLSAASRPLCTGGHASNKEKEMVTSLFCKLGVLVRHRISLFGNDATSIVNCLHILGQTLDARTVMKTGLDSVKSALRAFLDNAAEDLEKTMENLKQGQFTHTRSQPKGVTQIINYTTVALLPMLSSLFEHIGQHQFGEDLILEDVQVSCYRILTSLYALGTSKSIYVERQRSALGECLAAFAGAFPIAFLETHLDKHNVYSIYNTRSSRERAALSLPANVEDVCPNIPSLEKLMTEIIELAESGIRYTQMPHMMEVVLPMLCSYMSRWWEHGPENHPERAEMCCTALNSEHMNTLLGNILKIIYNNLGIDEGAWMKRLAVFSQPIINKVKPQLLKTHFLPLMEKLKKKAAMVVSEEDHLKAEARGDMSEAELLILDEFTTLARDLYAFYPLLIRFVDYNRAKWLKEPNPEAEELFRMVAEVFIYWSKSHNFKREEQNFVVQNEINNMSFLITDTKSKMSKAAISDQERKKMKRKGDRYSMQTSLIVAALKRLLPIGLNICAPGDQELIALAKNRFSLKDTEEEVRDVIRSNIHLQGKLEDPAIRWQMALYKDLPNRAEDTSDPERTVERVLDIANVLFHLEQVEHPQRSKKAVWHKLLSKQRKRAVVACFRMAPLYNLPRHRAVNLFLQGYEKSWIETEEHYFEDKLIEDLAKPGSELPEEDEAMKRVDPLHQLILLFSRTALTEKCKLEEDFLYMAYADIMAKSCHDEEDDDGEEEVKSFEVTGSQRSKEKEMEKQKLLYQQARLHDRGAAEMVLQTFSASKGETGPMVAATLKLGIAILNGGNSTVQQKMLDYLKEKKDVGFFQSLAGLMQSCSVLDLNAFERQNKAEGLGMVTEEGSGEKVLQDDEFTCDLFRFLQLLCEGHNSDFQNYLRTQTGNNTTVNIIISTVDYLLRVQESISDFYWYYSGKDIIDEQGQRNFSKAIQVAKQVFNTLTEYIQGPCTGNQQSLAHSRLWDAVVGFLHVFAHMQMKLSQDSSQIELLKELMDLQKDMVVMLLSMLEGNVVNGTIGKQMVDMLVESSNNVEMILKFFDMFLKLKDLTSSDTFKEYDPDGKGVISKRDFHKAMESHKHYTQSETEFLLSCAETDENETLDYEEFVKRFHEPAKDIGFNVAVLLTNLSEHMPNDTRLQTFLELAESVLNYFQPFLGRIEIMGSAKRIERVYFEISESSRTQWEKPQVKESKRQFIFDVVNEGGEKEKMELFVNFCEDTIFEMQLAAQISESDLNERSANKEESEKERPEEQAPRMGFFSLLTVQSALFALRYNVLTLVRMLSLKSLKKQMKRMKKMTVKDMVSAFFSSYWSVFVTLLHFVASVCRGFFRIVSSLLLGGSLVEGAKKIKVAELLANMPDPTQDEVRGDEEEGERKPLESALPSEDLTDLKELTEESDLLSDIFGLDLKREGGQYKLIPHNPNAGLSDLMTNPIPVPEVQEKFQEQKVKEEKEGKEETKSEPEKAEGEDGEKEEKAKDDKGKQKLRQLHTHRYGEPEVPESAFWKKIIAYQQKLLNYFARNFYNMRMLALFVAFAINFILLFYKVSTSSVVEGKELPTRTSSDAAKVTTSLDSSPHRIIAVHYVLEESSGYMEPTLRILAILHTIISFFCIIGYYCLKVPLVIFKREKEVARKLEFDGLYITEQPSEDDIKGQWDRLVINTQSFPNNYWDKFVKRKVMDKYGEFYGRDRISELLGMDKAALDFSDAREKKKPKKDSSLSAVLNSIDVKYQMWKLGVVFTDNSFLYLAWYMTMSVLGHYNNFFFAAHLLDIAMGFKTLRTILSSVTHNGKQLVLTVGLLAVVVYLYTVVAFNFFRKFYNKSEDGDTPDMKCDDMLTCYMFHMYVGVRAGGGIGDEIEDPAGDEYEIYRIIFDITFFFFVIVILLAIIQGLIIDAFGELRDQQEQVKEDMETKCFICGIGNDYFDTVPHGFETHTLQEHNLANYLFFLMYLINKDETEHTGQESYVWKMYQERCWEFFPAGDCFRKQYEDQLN
UniProt P23297: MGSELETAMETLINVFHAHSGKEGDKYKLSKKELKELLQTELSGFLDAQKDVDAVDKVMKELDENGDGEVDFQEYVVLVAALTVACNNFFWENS

Here are results for 1 substance from article PMC11381028.

No constants are given. Whether binding was seen depends on the method and setting. Binding seen in cells or lysates may run through a third protein. Some binding calls cover weakened binding; strength is not graded here.

With “wild-type S100A1 (human), overexpressed by adenovirus (from UniProt P23297 1-94)”, the binding result is recorded as “binds”.
